Results taken from PubChem BioAssay (Tox21).
Several values for one entry are separate records, joined by “and”; a condition that tells them apart may be missing. Equal values may be shown once. Inconclusive results, whose numbers are uncertain, are shown with a selection of clear calls. For part of these data: Potencies beside an inconclusive call are fits to weak or partial responses and may not hold up. Activity calls are given as the source filed them. Unless noted, the call rests on the fitted dose curve.

Amino acid sequences for entries named in this document (tags omitted). A change or cut given only in a name is not applied to a line headed by its entry.
UniProt P14416, whole entry, looked up: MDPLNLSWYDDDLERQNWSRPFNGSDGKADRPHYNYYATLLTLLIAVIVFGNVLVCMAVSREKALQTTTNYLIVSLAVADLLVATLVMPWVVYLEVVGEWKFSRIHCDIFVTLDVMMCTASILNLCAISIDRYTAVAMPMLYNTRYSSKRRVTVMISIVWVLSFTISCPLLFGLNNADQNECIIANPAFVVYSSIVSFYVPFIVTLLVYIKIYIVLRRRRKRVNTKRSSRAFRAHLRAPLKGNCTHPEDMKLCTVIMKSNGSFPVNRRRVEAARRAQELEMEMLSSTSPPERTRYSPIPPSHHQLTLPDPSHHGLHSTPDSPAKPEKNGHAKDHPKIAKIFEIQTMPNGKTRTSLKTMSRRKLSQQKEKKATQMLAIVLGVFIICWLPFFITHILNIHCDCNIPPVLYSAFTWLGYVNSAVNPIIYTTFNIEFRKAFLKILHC
UniProt P28223, whole entry, looked up: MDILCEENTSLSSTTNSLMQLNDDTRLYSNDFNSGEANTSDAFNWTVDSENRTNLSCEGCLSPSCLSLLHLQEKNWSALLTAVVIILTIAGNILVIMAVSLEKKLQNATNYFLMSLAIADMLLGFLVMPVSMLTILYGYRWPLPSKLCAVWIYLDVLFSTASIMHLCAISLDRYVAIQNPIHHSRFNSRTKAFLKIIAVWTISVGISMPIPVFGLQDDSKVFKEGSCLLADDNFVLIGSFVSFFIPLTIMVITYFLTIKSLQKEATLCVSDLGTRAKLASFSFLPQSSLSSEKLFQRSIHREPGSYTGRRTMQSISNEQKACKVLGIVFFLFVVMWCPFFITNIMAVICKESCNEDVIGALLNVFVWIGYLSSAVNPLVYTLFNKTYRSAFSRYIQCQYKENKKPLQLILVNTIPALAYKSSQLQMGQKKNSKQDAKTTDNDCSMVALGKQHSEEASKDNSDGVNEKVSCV
UniProt P11229: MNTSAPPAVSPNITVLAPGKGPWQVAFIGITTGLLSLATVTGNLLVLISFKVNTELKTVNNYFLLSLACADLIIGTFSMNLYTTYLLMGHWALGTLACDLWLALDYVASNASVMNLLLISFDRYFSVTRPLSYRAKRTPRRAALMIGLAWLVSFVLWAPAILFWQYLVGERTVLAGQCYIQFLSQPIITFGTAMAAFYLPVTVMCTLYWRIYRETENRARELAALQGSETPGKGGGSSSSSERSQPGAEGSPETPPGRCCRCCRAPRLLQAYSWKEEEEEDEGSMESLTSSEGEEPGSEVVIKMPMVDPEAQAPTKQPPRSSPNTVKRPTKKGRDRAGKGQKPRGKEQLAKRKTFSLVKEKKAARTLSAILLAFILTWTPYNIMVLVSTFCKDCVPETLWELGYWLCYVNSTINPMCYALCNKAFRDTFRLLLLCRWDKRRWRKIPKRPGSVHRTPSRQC

Columns and labels:
[1] = p53 small molecule agonists, cell-based qHTS assay: qHTS cell viability counter screen (AID 1963581); settings: p53RE-bla HCT-116 viability, ATP luminescence, 16 h; series mostly up to 66 µM; further: nearly all actives have a fitted effect of over 45% in size; further: potency means the concentration at half of the fitted maximal effect; on activity change, negative = cytotoxicity: on the % scale 0 is the no-effect control and ±100 the full control effect
Method in brief: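 Following 5 h attachment, HCT-116 p53RE-bla cells took up compound for 16 h at 37 C; the reporter was read with B/G FRET substrate (2 h RT), and viability then via CellTiter-Glo ATP luminescence.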

[2] = p53 small molecule agonists, cell-based qHTS assay (AID 1963582; active means well fitted activation curve with a large enough effect in the signal ratio in the repeat runs, not every such curve was filed as active; inconclusive means weak or mixed curves; the % refers to the signal ratio; further: potency means the concentration at half of the fitted maximal effect); settings: HCT-116 p53RE-bla reporter, beta-lactamase FRET ratio, 16 h; activation: at 66 µM (top of the series) unless noted
Method in brief: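 In this cell-based concentration-response screen, a p53 response element drives beta-lactamase; cells received DMSO-borne compounds after 5 h culture and were incubated a further 16 h before FRET substrate development.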

[3] = biological target: Beta-2 adrenergic receptor (Homo sapiens) (UniProt P07550); assay: Adrenergic beta2 receptor (ADRB2) small molecule agonists, cell-based qHTS assay (AID 1963593); settings: CHO-ADRB2 cells, cAMP HTRF, 30 min; further: potency means the concentration at half of the fitted maximal effect;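 on activation: CHO cells stably overexpressing human ADRB2; on the % scale 0 is the no-effect control and ±100 the full control effect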
Method in brief: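 CHO cells stably over-expressing ADRB2 were plated overnight at 37C, then dosed with compounds plus a stimulation mix containing 100uM IBMX and 25uM Ro-20-1724 for 0.5hr at room temperature. cAMP was measured by HTRF competition, 1hr.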

[4] = cAMP Responsive Elements (CRE) small molecule antagonists, cell-based qHTS assay (AID 1963591; active means well fitted inhibition curve with a large enough effect in the signal ratio in the repeat runs, not every such curve was filed as active; inconclusive means weak or mixed curves, or effect the other way; the % refers to the signal ratio; further: potency means the concentration at half of the fitted maximal effect); settings: CRE-bla HEK293T, beta-lactamase FRET ratio
Method in brief: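 HEK293T cells carrying a CRE-driven beta-lactamase reporter receive compound and NKH477 (0.25 uM final) for 3 h. Fluorescence from LiveBLAzer B/G FRET substrate is read after 2 h at room temperature.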

[5] = biological target: D(2) dopamine receptor (Homo sapiens) (UniProt P14416); assay: Dopamine D2 receptor (DRD2) small molecule agonists, cell-based qHTS assay (AID 1963594); settings: HEK293-DRD2 cAMP HTRF, agonist mode, 30 min; activation: at 92.4 µM (top of the series) unless noted; further: nearly all actives have a fitted effect of over 35% in size; further: potency means the concentration at half of the fitted maximal effect; on activation: on the % scale 0 is the no-effect control and ±100 the full control effect
Method in brief: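 HEK293 cells stably expressing human DRD2, pre-treated with PDE inhibitor Ro20-1724 (0.1 mM final) and compound 10 min at room temperature, then stimulated with NKH477 (200nM […]) for 30 min. cAMP read by HTRF (665/620 nm).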

[6] = biological target: D(2) dopamine receptor (Homo sapiens) (UniProt P14416); assay: Dopamine D2 receptor (DRD2) small molecule antagonists, cell-based qHTS assay (AID 1963595; active means well fitted inhibition curve with a large enough effect in the signal ratio in the repeat runs, with a control signal flat; inconclusive means weak or mixed curves, or effect the other way; the % refers to the signal ratio; further: potency means the concentration at half of the fitted maximal effect); settings: HEK293-DRD2 cAMP HTRF antagonist mode; activity change, negative = inhibition: at 92.4 µM (top of the series) unless noted
Method in brief: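 In this cell-based antagonist screen, compounds act for 10 min at room temperature before a 30 min challenge with 12 nM quinpirole and 200 nM NKH477. cAMP is quantified by HTRF competition in DRD2-HEK293 cells containing 0.1 mM Ro20-1724.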

[7] = biological target: Beta-2 adrenergic receptor (Homo sapiens) (UniProt P07550); assay: Adrenergic beta2 receptor (ADRB2) small molecule antagonists, cell-based qHTS assay (AID 1963592); settings: CHO-ADRB2 cells, isoproterenol-stimulated cAMP HTRF ratio, 0.5 h; activity change, negative = inhibition: at 92.4 µM (top of the series) unless noted; further: potency means the concentration at half of the fitted maximal effect; nearly all actives have a fitted effect of over 50% in size
Method in brief: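 Cells (CHO, stable ADRB2 overexpression) incubated 18-20hr at 37C; compounds added from DMSO; agonist mix (1nM isoproterenol, 100uM IBMX, 25uM Ro-20-1724) added; 0.5hr RT; d2-cAMP and anti-cAMP-cryptate added; 1hr RT; 665/615 nm read.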

[8] = cAMP Responsive Elements (CRE) small molecule agonists, cell-based qHTS assay (AID 1963590); settings: CRE-bla HEK293T, beta-lactamase FRET ratio, 3 h; activation: at 92.4 µM (top of the series) unless noted; further: on the % scale 0 is the no-effect control and ±100 the full control effect
Method in brief: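 A CRE-responsive beta-lactamase reporter in HEK 293T cells was used. Treatment ran 3 h at 37 C; detection used LiveBLAzer B/G FRET substrate for 2 h at room temperature.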

[9] = biological target: 5-hydroxytryptamine receptor 2A (Homo sapiens) (UniProt P28223); assay: 5-hydroxytryptamine receptor 2A (HTR2A) small molecule antagonists, cell-based qHTS assay (AID 1963586); settings: HTR2A-CHO cells, DOI-induced calcium flux, fluorescence; series mostly up to 61.5 µM; further: potency means the concentration at half of the fitted maximal effect; nearly all actives have a fitted effect of over 45% in size
Method in brief: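 Antagonist-mode intracellular calcium assay: DOI (4 nM) added after 5 min compound pre-incubation at room temperature to dye-loaded HTR2A-CHO cells. Fluorescence followed for 3 min, sampled every second.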

[10] = biological target: 5-hydroxytryptamine receptor 2A (Homo sapiens) (UniProt P28223); assay: 5-hydroxytryptamine receptor 2A (HTR2A) small molecule agonists, cell-based qHTS assay (AID 1963587); settings: HTR2A-CHO cells, calcium flux fluorescence, agonist mode; series mostly up to 76.8 µM; further: potency means the concentration at half of the fitted maximal effect; nearly all actives have a fitted effect of over 30% in size
Method in brief: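 CHO cells stably expressing human HTR2A, plated 18 h, loaded with calcium dye 1 h at 37 C. Agonist mode: compounds added and intracellular calcium fluorescence recorded kinetically for 2 min at 1 sec intervals.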

[11] = biological target: Muscarinic acetylcholine receptor M1 (Homo sapiens) (UniProt P11229); assay: Cholinergic receptor muscarinic 1 (CHRM1) small molecule antagonists, cell-based qHTS assay (AID 1963588); settings: CHRM1-CHO antagonist mode, calcium flux fluorescence; series mostly up to 61.5 µM; further: potency means the concentration at half of the fitted maximal effect; nearly all actives have a fitted effect of over 40% in size
Method in brief: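 CHRM1-CHO calcium-flux assay, antagonist mode. Cells were seeded 18 h, dye-loaded 1 h at 37 C and given compound for 5 min at RT, then acetylcholine was added at 50nM. FDSS fluorescence was read 3 min; 15 concentrations, three runs.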

[12] = activation: at 92.4 µM (top of the series) unless noted
[13] = activity change, negative = inhibition: at 92.4 µM (top of the series) unless noted

**Q.** What does the source list for `CC(CCC(=O)O)(c1ccc(O)cc1)c1ccc(O)cc1`?
**A.** Potency [1]: inactive; Potency [2]: inconclusive: 9.24 µM [rising, partial curve, poor fit]; Potency [3, 12]: inconclusive: 1.1 µM [inhibitor, single point]; activation [3, 12]: inconclusive: 10.6%

**Q.** Which Potency [1] does the source give for `S=C1NC=NC2N=CNC12` (stereo not given) here?
**A.** inconclusive: 3.64 µM [cytotoxic, full curve]

**Q.** What about the Potency [2] of the same compound?
**A.** inconclusive: 20.5 µM [activator, full curve, poor fit]

**Q.** What about the Potency [4, 13] of the same compound?
**A.** inconclusive: 7.7 µM [activator, full curve]

**Q.** And the Potency [3, 12]?
**A.** inconclusive: 61.1 µM [activator]

**Q.** And the Potency [5]?
**A.** inactive

**Q.** Which results are given for `CCCCNc1ccc(C(=O)OCCN(C)C)cc1`?
**A.** Potency [1]: inactive; Potency [2]: inactive; Potency [3, 12]: inactive

**Q.** Which Potency [1] does the source give for `COc1ccc2cc([C@H](C)C(=O)O)ccc2c1` here?
**A.** inconclusive: 22.3 µM [cytotoxic, single point]

**Q.** What about the Potency [2] of the same compound?
**A.** inconclusive: 32.4 µM [rising, partial curve, poor fit]

**Q.** What about the activity change, negative = inhibition [4, 13] of the same compound?
**A.** inconclusive: 15.4%

**Q.** And the activity change, negative = inhibition [6]?
**A.** inconclusive: -15.8% [at 42.5 µM]

**Q.** Which results are given for `CC(=O)CCc1ccccc1`?
**A.** Potency [1]: inconclusive: 51.3 µM [rising, single point]; Potency [2]: inactive; activity change, negative = inhibition [4, 13]: inconclusive: 1.25%; activity change, negative = inhibition ([4]; at 92.4 µM (top of the series)): inactive: -6.46%; activation [3, 12]: inconclusive: 2.32%; activation ([3]; at 92.4 µM (top of the series)): inactive: 5.28%

**Q.** What does the source list for `NC(=O)c1ccccc1[N+](=O)[O-]`?
**A.** Potency [1]: inconclusive: 0.373 µM [rising, full curve, poor fit]; Potency [2]: inconclusive: 3.73 µM [falling, single point]; activity change, negative = inhibition [4, 13]: inconclusive: -0.881%; Potency [3, 12]: inactive

**Q.** With `CCC(C=O)CC` as the compound, how does the Potency [1] read?
**A.** inactive

**Q.** What about the Potency [2] of the same compound?
**A.** inactive

**Q.** And the activation [3, 12]?
**A.** inconclusive: 26.3%

**Q.** For `Cc1c(C2(c3cc(Br)c(O)c(Br)c3C)OS(=O)(=O)c3ccccc32)cc(Br)c(O)c1Br`, which Potency [1] is on record?
**A.** active: 22.3 µM

**Q.** And the Potency [2]?
**A.** inconclusive: 35.3 µM [rising, single point]

**Q.** What about the Potency [7] of the same compound?
**A.** inconclusive: 16.7 µM [falling, partial curve]

**Q.** And the Potency [3, 12]?
**A.** inconclusive: 13.3 µM [falling, partial curve]

**Q.** What about the Potency [5] of the same compound?
**A.** inconclusive: 16.7 µM

**Q.** And the Potency [6]?
**A.** inconclusive: 16.7 µM [cytotoxic, partial curve]

**Q.** Which Potency [1] does the source give for `Cc1ncc[nH]1` here?
**A.** inactive

**Q.** And the Potency [2]?
**A.** inconclusive: 40.8 µM [falling, partial curve, poor fit]

**Q.** And the Potency [8]?
**A.** inactive

**Q.** What about the activation [3, 12] of the same compound?
**A.** inconclusive: 0.882%

**Q.** What about the activation ([3]; at 92.4 µM (top of the series)) of the same compound?
**A.** inactive: -3.56%

**Q.** What does the source list for `C=C1C2CCC(C2)C1(C)C` (stereo not given)?
**A.** Potency [1]: inconclusive: 0.408 µM [cytotoxic, single point]; Potency [2]: inconclusive: 0.364 µM [falling, single point]; activation [3, 12]: inconclusive: -17.7% and inconclusive: -9.53%

**Q.** With `CN(C)CCCOc1nn(Cc2ccccc2)c2ccccc12` as the compound, how does the Potency [1] read?
**A.** inconclusive: 7.07 µM [rising, partial curve, poor fit]

**Q.** And the Potency [2]?
**A.** inconclusive: 15.8 µM

**Q.** And the activity change, negative = inhibition [4, 13]?
**A.** inconclusive: -26.8% [at 42.4 µM]

**Q.** What about the Potency [7] of the same compound?
**A.** active: 26.6 µM

**Q.** And the Potency [3, 12]?
**A.** inconclusive: 13.3 µM [inhibitor, partial curve]

**Q.** And the Potency [5]?
**A.** inactive

**Q.** And the Potency [6]?
**A.** inactive

**Q.** For `CCOC(CN1CCN(CC(C)C(=O)c2ccccc2)CC1)c1ccccc1` (stereo not given), which activity change, negative = cytotoxicity [1] is on record?
**A.** inactive: 9.5% [at 13.5 µM]

**Q.** What about the Potency [9] of the same compound?
**A.** inconclusive: 797 nM [inhibitor, full curve, poor fit]

**Q.** For `N[C@@H](Cc1cc(I)c(Oc2ccc(O)c(I)c2)c(I)c1)C(=O)O`, which Potency [1] is on record?
**A.** inactive

**Q.** What about the Potency [2] of the same compound?
**A.** inconclusive: 16.9 µM [fluorescent]

**Q.** What about the Potency [3, 12] of the same compound?
**A.** inconclusive: 63.7 µM [inhibitor, single point]

**Q.** And the activation [3, 12]?
**A.** inconclusive: -11.4%

**Q.** With `CN(C)CCCN1c2ccccc2Sc2ccccc21` as the compound, how does the Potency [1] read?
**A.** inconclusive: 0.281 µM [rising, full curve, poor fit]

**Q.** And the Potency [2]?
**A.** inconclusive: 12.6 µM [rising, partial curve, poor fit]

**Q.** What about the Potency [7] of the same compound?
**A.** inconclusive: 29.8 µM

**Q.** And the Potency [3, 12]?
**A.** inconclusive: 33.5 µM [cytotoxic]

**Q.** What about the Potency [6] of the same compound?
**A.** active: 29.8 µM

**Q.** With `O=C(NS(=O)(=O)/C=C/c1ccccc1)c1ccc(F)cc1Cl` as the compound, how does the Potency [1] read?
**A.** inconclusive: 6.46 µM [rising, partial curve, poor fit]

**Q.** And the Potency [2]?
**A.** inconclusive: 12.9 µM [activator]

**Q.** And the activity change, negative = inhibition [4, 13]?
**A.** inconclusive: 29.3%

**Q.** What about the Potency [3, 12] of the same compound?
**A.** inactive

**Q.** Which Potency [1] does the source give for `CCC(=O)c1ccc2c(c1)N(CCCN(C)C)c1ccccc1S2` here?
**A.** inconclusive: 2.23 µM [rising, full curve, poor fit]

**Q.** What about the Potency [9] of the same compound?
**A.** active: 130 nM

**Q.** What about the Potency [10] of the same compound?
**A.** inconclusive: 26.8 µM [activator, partial curve, poor fit]

**Q.** What about the Potency [11] of the same compound?
**A.** inconclusive: 146 nM [inhibitor, full curve]

**Q.** What about the Potency [3, 12] of the same compound?
**A.** inconclusive: 33.5 µM

**Q.** And the Potency [6]?
**A.** active: 0.531 µM

**Q.** For `Nc1ncnc2c1ncn2[C@@H]1O[C@H](CO)[C@@H](O)[C@H]1O`, which Potency [1] is on record?
**A.** inconclusive: 19.9 µM [rising, partial curve, poor fit]

**Q.** What about the Potency [2] of the same compound?
**A.** inconclusive: 22.3 µM [falling, single point]

**Q.** What about the Potency [3, 12] of the same compound?
**A.** inconclusive: 16.8 µM [inhibitor, full curve, poor fit]

**Q.** And the Potency [5]?
**A.** inconclusive: 33.5 µM [rising, single point]
